Earlier results in patent US20250032525A1 (priority 2021, published 2025).
pIC50: −log10 of the molar value. Some entries share one result that the patent states for a list of compounds.

System: NCI-60 cell lines
Conditions: panel of cell lines, typical range, database values; read-out: IC50 values, typically; cited from earlier work

For `COc1cccc2c1C(=O)c1c(O)c3c(c(O)c1C2=O)C[C@@](O)(C(=O)CO)C[C@@H]3O[C@H]1C[C@H](N)[C@H](O)[C@H](C)O1` [DOX, doxorubicin], the pIC50 is listed as 6.52 to 7.52.
